In PubChem BioAssay AID330 (DTP/NCI, 2004):
The list shows only some results of the screen, not a fair sample: it is rich in T/C values a quarter to a half above the control, in often repeated tests (any T/C) and in doses without a T/C. Further doses and runs are listed elsewhere. T/C is the treated group as % of the vehicle group. Some entries give survivors of the animals treated and no T/C: the source holds a T/C of zero for them, seemingly a mark for toxic or unscored doses. Some doses without a T/C left all or most animals alive at the check, yet need not have been tolerated: survival well below the control is almost never listed, so the zero probably covers shortened survival too. Counts of survivors are from the toxicity check (mostly the fifth day) where no day follows; animals may have died later. Schedules are NCI's codes, taken here to give the interval after Q, in days (D) or hours (H), and the number of doses after X. Some doses were run more than once; the values are given in rising order. Counts like (3×) stand for listed records that agree. Where survival is the endpoint, the PubChem record calls one and a half times the control and up active, and a quarter to a half above the control has no call in these data; cut-offs in other NCI protocols can differ. Some T/C values carry the count of animals alive at the toxicity check (mostly the fifth day); where none is given, no animal had died by that day. Some schedule codes hold Z or #, which are not explained here.

Tested on: P388 leukemia ip, CD2F1 mice, survival T/C
Assay: NCI In Vivo Anticancer Drug Screen. Data for tumor model P388 Leukemia (intraperitoneal) in CD2F1 (CDF1) mice
Details: T/C endpoint: median survival time, higher T/C = longer survival

In the case of `COc1cccc2c1C(=O)c1c(O)c3c(c(O)c1C2=O)C[C@@](O)(C(=O)CO)C[C@@H]3OC1CC(N)C(O)C(C)O1` (some centres not stated), the T/C (dose: 2.0 mg/kg/injection, schedule: Q04DX003 (ip), vehicle: water, evaluated on day 30, list 2 of 2) was 109 (2×), 111, 113, 114, 118, 120 (2×), 121 (2×), 122 (2×), 123 (2×), 125, 126 (2×), 127 (2×), 128, 129 (2×), 130, 132, 133, 135 (2×), 137, 138, 141, 144, 145, 145 [5 of 6 alive on day 9], 157, 163, 210 % of control, the T/C (dose: 2.0 mg/kg/injection, schedule: Q04DX003 (ip), vehicle: water, evaluated on day 35) was 102, 118 (2×), 120, 121, 124, 125, 128, 130, 131, 133, 136, 137, 144 % of control and the T/C (dose: 2.0 mg/kg/injection, schedule: Q04DX003 (ip), vehicle: water, evaluated on day 40) was 111, 121, 128, 138, 153 % of control. For the same molecule, the T/C (dose: 2.0 mg/kg/injection, schedule: Q04DX003 (ip), vehicle: water, evaluated on day 45) was 105, 108, 112, 112 [5 of 6 alive on day 9], 113, 115, 117 (2×), 118, 118 [5 of 6 alive on day 9], 119, 120 (2×), 123, 125 (3×), 126 (3×), 127 (5×), 128 (4×), 129 (3×), 131 (2×), 134 (2×), 135 (2×), 136, 137, 138, 139, 139 [5 of 6 alive on day 9], 142, 144 (2×), 148, 157, 171, 192 (4×), 224, 226 % of control, the T/C (dose: 2.0 mg/kg/injection, schedule: Q04DX003 (ip), vehicle: water, evaluated on day 50) was 110, 111, 120, 126, 132 % of control and the T/C (dose: 2.0 mg/kg/injection, schedule: Q04DX003 (ip), vehicle: water, evaluated on day 60) was 127 and 136 % of control. The T/C (dose: 2.0 mg/kg/injection, schedule: Q## X001 (ip), vehicle: saline) was 93, 100, 102 (2×), 119, 124, 130 % of control, the T/C (dose: 2.16 mg/kg/injection, schedule: Q04DX003 (ip), vehicle: saline, evaluated on day 9) was 120 % of control and the T/C (dose: 2.16 mg/kg/injection, schedule: Q04DX003 (ip), vehicle: saline, evaluated on day 45) was 192 and 193 % of control. The T/C (dose: 2.16 mg/kg/injection, schedule: Q04DX003 (ip), vehicle: saline, evaluated on day 60) was 219 % of control, the T/C (dose: 2.5 mg/kg/injection, schedule: Q01DX001 (ip), vehicle: water, evaluated on day 5) was 123 % of control and the T/C (dose: 2.5 mg/kg/injection, schedule: Q01DX001 (ip), vehicle: water, evaluated on day 30) was 163 and 209 % of control. The T/C (dose: 2.5 mg/kg/injection, schedule: Q01DX001 (ip), vehicle: water, evaluated on day 45) was 157, 158 (2×), 164, 175, 178, 187, 197 % of control, the T/C (dose: 2.5 mg/kg/injection, schedule: Q04DX003 (ip), vehicle: saline) was 149 % of control and the T/C (dose: 2.5 mg/kg/injection, schedule: Q04DX003 (ip), vehicle: water) was 141 % of control. For the same molecule, the T/C (dose: 2.7 mg/kg/injection, schedule: Q04DX003 (ip), vehicle: saline, evaluated on day 45) was 120, 160, 163, 175, 182, 189, 194, 205, 211, 218, 222 % of control, the T/C (dose: 2.7 mg/kg/injection, schedule: Q04DX003 (ip), vehicle: saline, evaluated on day 60) was 184 % of control and the T/C (dose: 3.0 mg/kg/injection, schedule: Q01DX009 (ip), vehicle: saline, evaluated on day 30) was 118 % of control [9 of 10 alive]. For the same molecule, the T/C (dose: 3.0 mg/kg/injection, schedule: Q01DX009 (ip), vehicle: saline, evaluated on day 45) was 264 and 364 % of control, the T/C (dose: 3.0 mg/kg/injection, schedule: Q01DX009 (ip), vehicle: saline, evaluated on day 60) was 87 and 90 % of control [9 of 10 alive] and the T/C (dose: 3.0 mg/kg/injection, schedule: Q04DX003 (ip), vehicle: saline, evaluated on day 10) was 114 % of control [8 of 9 alive]. The T/C (dose: 3.0 mg/kg/injection, schedule: Q04DX003 (ip), vehicle: saline, evaluated on day 30) was 107 (2×), 132 [survivors not given], 150 % of control [survivors not given], the T/C (dose: 3.0 mg/kg/injection, schedule: Q04DX003 (ip), vehicle: saline, evaluated on day 60) was 181 % of control and the T/C (dose: 3.0 mg/kg/injection, schedule: Q04DX003 (ip), vehicle: water, evaluated on day 30) was 130 % of control. For the same molecule, the T/C (dose: 3.0 mg/kg/injection, schedule: Q04DX003 (ip), vehicle: water, evaluated on day 45) was 127 % of control, the T/C (dose: 3.13 mg/kg/injection, schedule: Q01DX009 (ip), vehicle: water, evaluated on day 30) was 86, 90, 95, 183 % of control and the T/C (dose: 3.13 mg/kg/injection, schedule: Q01DX009 (ip), vehicle: water, evaluated on day 45) was 86 (2×), 87, 100 [5 of 6 alive], 105 % of control. For the same molecule, the survivor count (dose: 3.13 mg/kg/injection, schedule: Q01DX009 (ip), vehicle: water) was 0 of 6, 4 of 6, 5 of 6, 3 of 3 (2×), 5 of 5, 6 of 6 (3×), the T/C (dose: 3.6 mg/kg/injection, schedule: Q04DX003 (ip), vehicle: saline, evaluated on day 9) was 133 % of control and the T/C (dose: 3.6 mg/kg/injection, schedule: Q04DX003 (ip), vehicle: saline, evaluated on day 45) was 152 and 190 % of control. For the same molecule, the T/C (dose: 3.6 mg/kg/injection, schedule: Q04DX003 (ip), vehicle: saline, evaluated on day 60) was 192 and 292 % of control, the T/C (dose: 4.0 mg/kg/injection, schedule: Q01DX001 (ip), vehicle: Klucel (hydroxypropylcellulose) (HPC)) was 125 % of control and the T/C (dose: 4.0 mg/kg/injection, schedule: Q01DX001 (ip), vehicle: other) was 146 % of control [7 of 10 alive]. The T/C (dose: 4.0 mg/kg/injection, schedule: Q01DX001 (ip), vehicle: saline, evaluated on day 3) was 190 % of control, the T/C (dose: 4.0 mg/kg/injection, schedule: Q01DX001 (ip), vehicle: saline, evaluated on day 5) was 94, 98, 104, 113, 123, 126, 146, 159 % of control and the T/C (dose: 4.0 mg/kg/injection, schedule: Q01DX001 (ip), vehicle: saline, evaluated on day 6) was 200 % of control. The T/C (dose: 4.0 mg/kg/injection, schedule: Q01DX001 (ip), vehicle: saline, evaluated on day 7) was 157, 165, 171, 176 % of control, the T/C (dose: 4.0 mg/kg/injection, schedule: Q01DX001 (ip), vehicle: saline, evaluated on day 9) was 131 and 144 % of control and the T/C (dose: 4.0 mg/kg/injection, schedule: Q01DX001 (ip), vehicle: saline, evaluated on day 30) was 137, 157, 186 % of control. The T/C (dose: 4.0 mg/kg/injection, schedule: Q01DX001 (ip), vehicle: saline, evaluated on day 35) was 161 % of control, the T/C (dose: 4.0 mg/kg/injection, schedule: Q01DX001 (ip), vehicle: saline, evaluated on day 45) was 131 % of control and the T/C (dose: 4.0 mg/kg/injection, schedule: Q01DX001 (ip), vehicle: saline, evaluated on day 60) was 132 % of control. For the same molecule, the survivor count (dose: 4.0 mg/kg/injection, schedule: Q01DX005 (ip), vehicle: water) was 4 of 4, the T/C (dose: 4.0 mg/kg/injection, schedule: Q01DX009 (ip), vehicle: saline, evaluated on day 5) was 91 and 93 % of control and the T/C (dose: 4.0 mg/kg/injection, schedule: Q01DX009 (ip), vehicle: saline, evaluated on day 30) was 169 % of control. The T/C (dose: 4.0 mg/kg/injection, schedule: Q01DX009 (ip), vehicle: saline, evaluated on day 45) was 86, 89, 100 % of control, the T/C (dose: 4.0 mg/kg/injection, schedule: Q01DX009 (ip), vehicle: saline, evaluated on day 60) was 86 and 161 % of control and the survivor count (dose: 4.0 mg/kg/injection, schedule: Q01DX009 (ip), vehicle: saline) was 9 of 10, 10 of 10, 6 of 6 (2×). For the same molecule, the T/C (dose: 4.0 mg/kg/injection, schedule: Q01DX009 (ip), vehicle: water, evaluated on day 5) was 76 % of control, the T/C (dose: 4.0 mg/kg/injection, schedule: Q01DX009 (ip), vehicle: water, evaluated on day 30) was 86, 87, 89, 90, 91, 97, 100, 101, 118, 120 % of control and the T/C (dose: 4.0 mg/kg/injection, schedule: Q01DX009 (ip), vehicle: water, evaluated on day 45) was 88, 90, 94, 108, 111 % of control. The survivor count (dose: 4.0 mg/kg/injection, schedule: Q01DX009 (ip), vehicle: water) was 3 of 4, 5 of 6 (2×), 3 of 3 (2×), 5 of 5, 6 of 6 (2×), 8 of 8.
